# Results taken from paper PMC3264873 (Pharmaceutical Research, 2011).
# Target: T1, OATP1B1 (Homo sapiens, UniProt Q9Y6L6)
# T1 sequence (Q9Y6L6 1-691): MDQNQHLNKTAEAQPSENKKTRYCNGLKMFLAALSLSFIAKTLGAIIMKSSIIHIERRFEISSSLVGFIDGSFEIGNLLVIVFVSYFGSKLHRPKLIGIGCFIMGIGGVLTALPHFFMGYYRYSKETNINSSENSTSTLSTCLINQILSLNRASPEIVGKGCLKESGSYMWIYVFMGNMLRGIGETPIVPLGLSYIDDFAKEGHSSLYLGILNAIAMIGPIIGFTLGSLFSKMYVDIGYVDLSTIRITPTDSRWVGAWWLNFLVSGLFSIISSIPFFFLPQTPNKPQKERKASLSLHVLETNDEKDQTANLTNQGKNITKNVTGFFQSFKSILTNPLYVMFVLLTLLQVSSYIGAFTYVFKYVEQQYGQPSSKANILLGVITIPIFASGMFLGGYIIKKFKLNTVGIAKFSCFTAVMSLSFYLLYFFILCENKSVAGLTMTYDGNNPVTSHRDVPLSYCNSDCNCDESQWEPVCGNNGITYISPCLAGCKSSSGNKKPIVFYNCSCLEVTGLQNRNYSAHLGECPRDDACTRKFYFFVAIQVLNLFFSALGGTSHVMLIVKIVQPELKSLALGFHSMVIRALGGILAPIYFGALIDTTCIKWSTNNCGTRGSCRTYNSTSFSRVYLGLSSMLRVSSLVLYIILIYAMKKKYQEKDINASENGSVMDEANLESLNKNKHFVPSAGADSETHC
# Experiment: Michaelis-Menten uptake kinetics in HEK293 cells stably expressing OATP1B1
# Assay type: cell-based
smiles,measurement,setting,value
CC(C)c1c(C(=O)Nc2ccccc2)c(-c2ccccc2)c(-c2ccc(F)cc2)n1CC[C@@H](O)C[C@@H](O)CC(=O)O [Atorvastatin],Uptake in OATP1B1 cells relative to mock-transfected cells,at 5 min (E17βG) and 2 min (atorvastatin),≥ 3 times
same,Vmax of OATP1B1-mediated uptake,"atorvastatin, 24-well plates, HEK293-OATP1B1",6.61 (± 1.24) pmol/min/μg protein
